In PMC4480132:
The exact form of at least one protein or probe is not confirmed. At least one verdict rests on a figure or table, not on a statement of the authors.

Protein sequences, listed by entry. Tags and fused reporters are not part of them. Lines headed by an entry give the natural chain unless they say otherwise; changes in a name come on top.
UniProt Q9H063: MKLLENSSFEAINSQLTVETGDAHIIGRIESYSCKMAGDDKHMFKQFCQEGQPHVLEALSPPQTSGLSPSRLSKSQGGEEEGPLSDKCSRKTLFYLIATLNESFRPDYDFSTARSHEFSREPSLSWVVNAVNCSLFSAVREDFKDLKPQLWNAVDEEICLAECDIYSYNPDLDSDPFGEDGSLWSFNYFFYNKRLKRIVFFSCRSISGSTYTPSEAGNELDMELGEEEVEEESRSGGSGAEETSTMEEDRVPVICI

Target: MAF1 (His-tagged, Fitzgerald 80R-1955) (UniProt Q9H063)
Assay: competition with a labelled probe
Settings: unlabeled self, 200 ng vs 40 ng probe; IP-qPCR: 20 mM HEPES pH 7.6, 150 mM NaCl, 0.25 mM EDTA, 10% glycerol, 0.2% NP40, 1 mM DTT, 200 ng BSA, 50 ul, 20 ng DNA, 400 ng MAF1, 4 C/ice; commercial protein; protein details: His6; label: 5' biotin (probe), unlabeled as self competitor

AATCAACAACTTTGTATACTTAAGTTCAGTGGACCTCAATTTCCTCATCTGTGAAATAAA (double strand) [p21 A-box probe (CDKN1A MIR3)]
binding result: binds
